Experimental data reported in patent US20230129723A1, “EN[…] OF 3,4-METHYLENEDIOXYMETHAMPHETAMINE AND RELATED METABOLITES AND USES THEREOF” (ATAI Life Sciences AG, priority 2021, published 2023).

Tests used:
[1] = tested on: rat embryonic cortical neuron cultures; assay: Neurite outgrowth in primary rat embryonic cortical neuron cultures, single test articles (Example 1); type: cell-based; conditions: 250 nM, 3 days treatment, compared to 0.1% sterile water vehicle control, t test p<0.05
From the text: Primary rat cortical neuron experimental methods: Female Wistar rats of 17 days gestation were killed by cervical dislocation and the fetuses (typically 6 to 8 in number) were removed from the uterus. Fetal brains were placed in ice-cold medium of Leibovitz (L15, Gibco, France). Cortex was dissected and meninges were carefully removed. The cortical neurons were dissociated by trypsinization (trypsin-EDTA, Gibco) in the presence of DNAse I (Roche, France). The reaction was stopped by addition of Dulbecco's Modified Eagle Medium (DMEM; Gibco) with 10% of fetal bovine serum (FBS; Gibco). The suspension was triturated with a 10-ml pipette and a 21-gauge needle syringe and centrifuged. The pellet of dissociated cells was resuspended in a medium consisting of Neurobasal (Gibco) supplemented with 2% B27 supplement (Gibco), 0.5 mM L-Glutamine (Gibco), and an antibiotic-antimycotic mixture. Viable cells were counted in a Neubauer cytometer and cells were seeded in 96-well plates (Costar) precoated with poly-L-lysine at 10,000 cells/well.
Stock solutions were prepared in sterile water at 10 mM, and stored at −20° C. until use. Further dilution will be performed in culture in the medium on the day of the treatment. 0.1% Sterile water will be present in all tested conditions. […]
Cells were successively permeabilized for 30 minutes using 0.1% triton, saturated with PBS containing 3% bovine serum albumin (BSA) and incubated for 1 hour with anti-beta III tubulin antibody (T5168, Sigma). […] After rinsing the cells with PBS, the plate was imaged and neurite networks were examined and analyzed using a High-Content Screening platform (CellInsight CX5, Thermo Scientific) with integrated Photometrics high-resolution fluorescent camera, Olympus objective (10×) and HCS Studio Cell Analysis Software.
Approximately 2,000 neurons per well were analyzed using a validated cortex neuron outgrowth algorithm that utilizes parameters optimized for analysis of embryonic rat cortical neuron cultures. […]

[2] = tested on: rat embryonic cortical neuron cultures; assay: Neurite outgrowth in primary rat embryonic cortical neuron cultures, racemic and non-racemic R(−)/S(+)-MDMA mixtures (Example 2); type: cell-based; conditions: positive control 250 nM, compared to vehicle control
[3] = all of the conditions tested, t test p<0.05

SMILES: COc1cc2c(cc1OC)C(=O)C(CC1CCN(Cc3ccccc3)CC1)C2 (stereo not shown) [Donepezil, reference compound]
- neurite number [1]: significantly increasing
- neurite total length (μm) [1]: significantly increasing
- total number of branchpoints [1]: significantly increasing
- neurite number ([2]; 10 uM R(−), variable S(+) conditions, t test p<0.05): significantly increasing
- neurite total length (um) [2, 3]: significantly increasing
- total number of branchpoints [2, 3]: significantly increasing
- average number of neurites ([2]; one sample: 10 uM S(+), variable R(−) treatment conditions): did not reach statistical significance
